Measurements from patent US12661410B2, “Compounds for targeted degradation of RET” (C4 Therapeutics, Inc., priority 2020, dated 2026).
Where a chain is given by its changes, count along the chain named. For at least one compound, name, drawing or mass did not settle the structure.

How the values were obtained:
RET (658-1114) = biological target: T1, RET (658-1114) (Homo sapiens, UniProt P07949); test: HiBiT-Degradation, RET wild-type degradation assay (Nano-Glo HiBiT Lytic), 293T.144 cells; format: cell-based
T1 construct: 658-1114; expressed in transfected cells; host or cells: 293T.144 (293T cells, generated in-house)
T1 sequence (P07949 658-1114): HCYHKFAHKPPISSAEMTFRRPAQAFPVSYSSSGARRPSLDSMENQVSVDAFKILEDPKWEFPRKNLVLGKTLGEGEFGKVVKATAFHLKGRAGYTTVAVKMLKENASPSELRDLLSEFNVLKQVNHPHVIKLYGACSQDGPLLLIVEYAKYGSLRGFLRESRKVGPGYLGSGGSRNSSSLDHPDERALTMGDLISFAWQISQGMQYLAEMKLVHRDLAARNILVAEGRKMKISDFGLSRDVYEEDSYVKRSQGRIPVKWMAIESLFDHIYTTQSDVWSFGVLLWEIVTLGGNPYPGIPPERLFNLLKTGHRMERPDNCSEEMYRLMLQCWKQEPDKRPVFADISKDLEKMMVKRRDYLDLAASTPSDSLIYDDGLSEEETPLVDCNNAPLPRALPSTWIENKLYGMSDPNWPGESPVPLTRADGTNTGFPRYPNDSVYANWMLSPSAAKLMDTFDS
Text: (§1) Dulbecco's modified Eagle medium (DMEM) no-phenol red media and fetal bovine serum (FBS) were purchased from Gibco (Grand Island, NY, USA). Cell lines ectopically expressing wild-type or G810R RET kinase domain fused with a HiBiT tag were generated in-house (293T. 144 and 293T. 165, respectively). Cell culture flasks and 384-well microplates were acquired from VWR (Radnor, PA, USA). The Nano-Glo® HiBiT Lytic Assay System was purchased from Promega (Madison, WI, USA).
(§2) RET wild-type (WT) and G810R degradation were assessed using the Nano-Glo® HiBiT Lytic assay (Promega, Medison, WI, USA). To determine the effect of degraders on protein levels, cells were plated in 384-well plates and treated with compounds of interest in duplicates for 6 hours using an 11-point half-log dilution series, with the highest dose set at 10 μM. Cell lysis and addition of the Nano-Glo® HiBiT Lytic Assay reagents was then performed. Luminescence signal was measured using an EnVision™ Multimode plate reader (Perkin Elmer, Santa Clara, CA, USA). The half-maximal degradation concentration (DC50) and % remaining protein (Emax) was then derived from the dose-response curves.

RET(KD: 658-1114 G810R) = biological target: T2, RET(KD: 658-1114 G810R) (Homo sapiens, UniProt P07949, G810R); test: HiBiT-Degradation, RET G810R degradation assay (Nano-Glo HiBiT Lytic), 293T.165 cells; format: cell-based
T2 construct: 658-1114; expressed in transfected cells; host or cells: 293T.165 (293T cells, generated in-house)
T2 sequence (P07949 658-1114 G810R): T1 sequence (P07949 658-1114) with G153R
Text: as §1, §2

For CCC1(C(=O)NC2CCC2)CCN(c2ccc(-c3nc(-c4cnn([C@H]5CC[C@H](N6CCC(c7ccc(NC8CCC(=O)NC8=O)cc7Cl)CC6)CC5)c4)cn4ncc(C#N)c34)cn2)CC1 (single isomer, unassigned) [Compound 133, 1-[5-[6-[1-[4-[4-[2-chloro-4-[(2,6-dioxo-3-piperidyl)amino]phenyl]-1-piperidyl]cyclohexyl]pyrazol-4-yl]-3-cyano-pyrazolo[1,5-a]pyrazin-4-yl]-2-pyridyl]-N-cyclobutyl-4-ethyl-piperidine-4-carboxamide], the “293T.144 RET (658-1114) 6.0 hours (IP) [nM]” value (RET (658-1114)) was “++++ (<50 nM = ++++)” and the “293T.165 RET(KD: 658-1114 G810R) 6.0 hours (IP) [nM]” value (RET(KD: 658-1114 G810R)) was “++++ (<50 nM = ++++)”.
